Assay results taken from PubChem BioAssay AID1671190 (National Center for Advancing Translational Sciences (NCATS), 2021).
Hit rate of the full screen: of about 580,000 compounds, about 6,100 (1.1%) were called active. The shares of active, inactive and inconclusive entries below differ from those in the screen. The call rests on the fitted dose curve; in most records, active means well fitted inhibition curve with a large enough effect; inconclusive means small, poorly fitted or top-dose-only effect, or another doubt; inactive means no such curve, though single readings can be large or run the other way. A potency beside an inconclusive call is a rough fit, not a confirmed value.
On the % scale 0 is the no-effect control and ±100 the full control effect; potency means the concentration at half of the fitted maximal effect.

By UniProt entry, the sequences of proteins in these tests, tags left out.
UniProt P18054, whole entry, looked up: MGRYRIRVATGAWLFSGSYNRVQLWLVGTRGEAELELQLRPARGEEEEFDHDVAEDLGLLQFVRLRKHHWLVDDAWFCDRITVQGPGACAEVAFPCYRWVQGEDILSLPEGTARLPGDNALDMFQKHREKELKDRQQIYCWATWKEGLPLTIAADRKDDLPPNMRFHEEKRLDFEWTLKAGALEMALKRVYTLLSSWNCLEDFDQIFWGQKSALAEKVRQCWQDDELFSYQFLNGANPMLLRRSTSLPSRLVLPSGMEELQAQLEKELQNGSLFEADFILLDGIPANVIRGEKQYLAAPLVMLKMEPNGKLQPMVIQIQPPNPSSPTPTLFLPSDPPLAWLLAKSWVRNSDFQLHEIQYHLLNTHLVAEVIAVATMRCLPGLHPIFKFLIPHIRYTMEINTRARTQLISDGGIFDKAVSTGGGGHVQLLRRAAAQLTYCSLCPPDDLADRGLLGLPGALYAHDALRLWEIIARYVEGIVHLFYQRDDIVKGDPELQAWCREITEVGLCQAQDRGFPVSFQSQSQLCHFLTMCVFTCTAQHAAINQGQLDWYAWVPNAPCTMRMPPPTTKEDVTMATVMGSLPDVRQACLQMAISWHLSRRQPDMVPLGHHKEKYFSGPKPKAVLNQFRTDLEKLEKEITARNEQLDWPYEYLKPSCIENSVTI

Each molecule was assayed against Polyunsaturated fatty acid lipoxygenase ALOX12 (Homo sapiens) (UniProt P18054) (assay: Primary qHTS assay for inhibitors of human arachidonate 12S-lipoxygenase (ALOX12): Round 2). Conditions: purified 12hLO, xylenol orange hydroperoxide absorbance; activity change, negative = inhibition: at 108 µM (top of the series) unless noted.
Summary of the method: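 Purified human 12hLO (150 nM final) in 25 mM Hepes, 0.01% Triton X-100, pH 7.0 was preincubated 15 min at room temperature with compound. Then 40 uM arachidonic acid was added, 30 min. Hydroperoxide was read by Fe-XO absorbance ratio 573/405 nm.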
`CCC(C(=O)NCCc1ccc(S(N)(=O)=O)cc1)c1ccccc1` (stereo unspecified) was tested, and the Potency was inconclusive: 0.178 µM [inhibitor, single point].
For `CCCOc1ccc(OCCOCCN2CCc3ccccc3C2)cc1`, the Potency was inconclusive: 0.316 µM [inhibitor, full curve, poor fit].
For `Cn1ncc2c(Nc3cc(Cl)cc(Cl)c3)ncnc21`, the “activity change, negative = inhibition” value was inactive: 11.8%.
With `CCOC(=O)N1CCC(NC(=O)c2cc3sccc3n2CC)CC1` the “activity change, negative = inhibition” value was inactive: 3.75%.
`CCN(C(=O)Cn1c(Cl)nc2c1c(=O)n(C)c(=O)n2C)C1CCCCC1` was tested, and the Potency was inconclusive: 35.5 µM [inhibitor, single point].
For `CCNc1c(NS(=O)(=O)c2ccc(OC)c(OC)c2)c(=O)oc2ccccc12`, the Potency was inconclusive: 89.1 µM [inhibitor, single point].
`CN(C)S(=O)(=O)c1ccc(N2CCCC2)c(C(=O)NC2CCCCC2)c1` was tested, and the Potency was inconclusive: 112 µM [inhibitor, single point].
In the case of `O=C1CN(C(=O)Cc2ccc(F)cc2)C(c2ccc(F)cc2)c2cc(Cl)ccc2N1` (stereo unspecified), the Potency is reported as inconclusive: 0.355 µM [inhibitor, full curve, poor fit].
In the case of `O=C(C(Sc1nncn1-c1ccccc1F)c1ccccc1)N1CCCCC1` (stereo unspecified), the Potency is reported as inconclusive: 4.47 µM [inhibitor, full curve, poor fit].
With `CCN1CCCC1CNCCc1ccccc1` (stereo unspecified) the Potency was inconclusive: 44.7 µM [inhibitor, full curve, poor fit].
`N#CC1=C2SCN(Cc3ccco3)CN2C(=O)CC1c1cccc2ccccc12` (stereo unspecified) was tested, and the Potency was inconclusive: 12.6 µM [inhibitor, full curve, poor fit].
With `Cc1ccc(-n2nc3c(N4CCC(C(=O)NCc5ccccc5Cl)CC4)nnc(C)c3c2C)cc1` the Potency was inconclusive: 56.2 µM [inhibitor, partial curve, poor fit].
`O=C(Nc1nnc(SCC(=O)N2CCCC2)s1)C1CC(=O)N(c2ccc(F)cc2)C1` (stereo unspecified) was tested, and the Potency was inconclusive: 22.4 µM [inhibitor, partial curve].
With `COc1ccc(NC(=O)CSc2nnc(-c3ccccc3)n2Cc2ccco2)c(OC)c1` the Potency was inconclusive: 39.8 µM [inhibitor, partial curve, poor fit].
For `CC(=O)n1cc(N(C(=O)CCl)c2ccccc2)c2ccccc21`, the Potency was inconclusive: 35.5 µM [inhibitor, partial curve, poor fit].
In the case of `Cc1ccc(S(=O)(=O)N/N=C/c2ccc3nccnc3c2)cc1`, the Potency is reported as inconclusive: 56.2 µM [inhibitor, single point].
For `CCCn1c(C2CC(=O)N(c3cccc(C(F)(F)F)c3)C2)nc2ccccc21` (stereo unspecified), the “activity change, negative = inhibition” value was inactive: -15%.
In the case of `COc1ccc(-c2noc([C@@H]3C[C@@H](O)CN3C3CCCCC3)n2)cc1`, the Potency is reported as inconclusive: 63.1 µM [inhibitor, full curve, poor fit].
For `CCCC(C)C(=O)Nc1ccc(S(N)(=O)=O)cc1` (stereo unspecified), the “activity change, negative = inhibition” value was inactive: 8.87%.
In the case of `CCOC(=O)C(NC(=O)/C=C/c1ccc(OC(C)C)c(OC)c1)C(=O)OCC`, the “activity change, negative = inhibition” value is reported as inactive: 30.1%.
In the case of `OCCCn1c(C2CCCN2c2nc(-c3ccc(Cl)cc3)cs2)nc2cc(Cl)c(N3CCCCC3)cc21` (stereo unspecified), the “activity change, negative = inhibition” value is reported as inactive: -8%.
With `CC(=O)c1ccc(NC(=O)CCOc2ccccc2)cc1` the Potency was inconclusive: 50.1 µM [inhibitor, partial curve, poor fit].
With `CCc1noc(C)c1C(=O)OCC(=O)NCCc1ccc(OC)cc1` the “activity change, negative = inhibition” value was inactive: -16.8%.
With `O=C(Nc1ccccc1)c1ccc(N2CCN(c3ccccn3)CC2)c(S(=O)(=O)N2CCOCC2)c1` the Potency was inconclusive: 79.4 µM [inhibitor, single point].
For `O=C(NCC1CN(Cc2ccccc2)CCO1)C1CCCC1` (stereo unspecified), the “activity change, negative = inhibition” value was inactive: 16.7%.
In the case of `Cc1onc(-c2ccccc2Cl)c1C(=O)NC(=S)NCc1cccnc1`, the “activity change, negative = inhibition” value is reported as inactive: 9.95%.
`CCn1nnc2cc(C(=O)N(C)CC(=O)Nc3ccc(Br)c(C)c3)ccc21` was tested, and the Potency was inconclusive: 14.1 µM [inhibitor, full curve, poor fit].
In the case of `O=C(Nc1ccccc1C(=O)NCCc1ccco1)C1=CSCCO1`, the Potency is reported as inconclusive: 28.2 µM [inhibitor, partial curve, poor fit].
`COc1ccc(OC)c(S(=O)(=O)NCCc2csc(-c3cccc(F)c3)n2)c1` was tested, and the “activity change, negative = inhibition” value was inactive: -17.9%.
With `Cc1ccc(SCCC(=O)NCCSCc2ccccc2C)cc1` the Potency was inconclusive: 44.7 µM [inhibitor, partial curve, poor fit].
In the case of `COc1ccc2c(c1)[C@@H](NCc1nccs1)[C@H](C)[C@@H](c1ccccc1)N2C(=O)NC(C)C`, the “activity change, negative = inhibition” value is reported as inactive: 10.6%.
In the case of `Cc1cnc(SCc2ccccn2)nc1C1CCCN(C(=O)c2scc3c2CCCC3)C1` (stereo unspecified), the Potency is reported as inconclusive: 89.1 µM [inhibitor, partial curve, poor fit].
For `CCOc1ccc(NS(=O)(=O)c2ccc(NC(=O)c3cccnc3)c(OC)c2)cc1`, the “activity change, negative = inhibition” value was inactive: -6.48%.
`CCOc1cc2sc(N3CCC(C(=O)Nc4cc(C)cc(C)c4)CC3)nc2cc1Br` was tested, and the Potency was inconclusive: 112 µM [inhibitor, partial curve, poor fit].
With `CCC(C)c1ccccc1NC(=O)COC(=O)c1ccc(C)c(NC(=O)c2ccco2)c1` (stereo unspecified) the Potency was inconclusive: 44.7 µM [inhibitor, partial curve, poor fit].
With `COc1ccc(C2=Nn3c(nnc3-c3ccccc3OC)SC2)cc1OCC1CC1` the Potency was active: 35.5 µM.
For `COC(=O)[C@H](Cc1ccccc1)NC(=O)c1cc(COc2c(F)cccc2F)on1`, the “activity change, negative = inhibition” value was inactive: -7.79%.
For `CC1CCC(C(C)C)C(OC(=O)COC(=O)c2ccc(CSc3ccc(Cl)cc3)cc2)C1` (stereo unspecified), the Potency was inconclusive: 50.1 µM [inhibitor, partial curve, poor fit].
`COc1ccc(NC2CCCN(C(=O)CCc3cccc(Cl)c3)C2)cc1` (stereo unspecified) was tested, and the “activity change, negative = inhibition” value was inactive: -18%.
With `COc1ccc(C=C2SC(=O)NC2=O)cc1OC` the “activity change, negative = inhibition” value was inactive: -21.4%.
For `COc1ccc(O)cc1CN1CCC(Cc2ccc(C(=O)O)cc2)C1` (stereo unspecified), the “activity change, negative = inhibition” value was inactive: 87.3%.
For `COc1ccc(CCCC(=O)N2CCC3(CCCNC3)C2)cc1` (stereo unspecified), the Potency was inconclusive: 7.08 µM [inhibitor, full curve, poor fit].
With `C/C(=N\Nc1ccc([N+](=O)[O-])cc1)c1ccc(N)cc1` the Potency was inconclusive: 14.1 µM [inhibitor, partial curve, poor fit].
`CCOC(=O)c1c[nH]c2ccc3ccccc3c2c1=O` was tested, and the “activity change, negative = inhibition” value was inactive: 10.5%.
`Cc1ccc(C(=O)N2CCC(c3n[nH]c(=O)n3Cc3ccc(F)cc3)CC2)cc1F` was tested, and the Potency was inconclusive: 10 µM [inhibitor, full curve].
In the case of `CCCC(=O)Nc1cc(OC)c(NC(=S)Nc2ccc(CC)cc2)cc1OC`, the Potency is reported as inconclusive: 39.8 µM [inhibitor, partial curve, poor fit].
In the case of `CNC(=O)c1ccc(NC(=O)CN2CCc3cc(OC)c(OC)cc3C2c2ccccc2)cc1` (stereo unspecified), the Potency is reported as inconclusive: 126 µM [inhibitor, single point].
`C/C(=N/Nc1ccc(S(N)(=O)=O)cc1[N+](=O)[O-])c1ccc(Cl)cc1` was tested, and the “activity change, negative = inhibition” value was inactive: -42%.
In the case of `COc1ccc(CCC(=O)Nc2cnc3ccccc3c2)cc1`, the Potency is reported as active: 12.6 µM.
For `O=c1c(=O)n(O)c2ccccc2n1O`, the “activity change, negative = inhibition” value was inactive: -15.2%.
For `O=C(/C=C/Nc1ccc(F)cc1)C(F)(F)F`, the “activity change, negative = inhibition” value was inactive: -19.1%.
With `Cc1ccc(Cl)cc1N1CCN(C(c2cccnc2)c2nnnn2C2CCCCC2)CC1` (stereo unspecified) the “activity change, negative = inhibition” value was inactive: 9.01%.
For `Nc1ccc(N2CCN(CCCCN3C(=O)C4CCCN4C3=O)CC2)cc1` (stereo unspecified), the “activity change, negative = inhibition” value was inactive: -21.7%.
In the case of `N#C/C(=C\c1cc([N+](=O)[O-])ccc1Cl)C(N)=O`, the “activity change, negative = inhibition” value is reported as inactive: -23.3%.
With `Cn1ncc2c(Nc3ccc4ccccc4c3)ncnc21` the Potency was inconclusive: 39.8 µM [inhibitor, partial curve, poor fit].
For `Cc1noc(C)c1S(=O)(=O)N1CCC2(CC1)c1[nH]c3ccccc3c1CCN2C`, the “activity change, negative = inhibition” value was inactive: 3.63%.
`CN(C(=O)COC(=O)c1cc(S(=O)(=O)N2CCCCC2)ccc1Cl)c1ccccc1` was tested, and the Potency was inconclusive: 158 µM [inhibitor, single point].
In the case of `Cc1ccc(CNc2nc3cc(-c4ccccc4C)sc3c(=O)n2C)c(C)c1`, the Potency is reported as inconclusive: 2.82 µM [inhibitor, full curve, poor fit].
With `CN1CCc2cc3c(c4c2[C@H]1[C@H](O)c1ccccc1-4)OCO3` the “activity change, negative = inhibition” value was inactive: -19.1%.
`CC(C)c1ccc(/C=N/NC(=O)c2nnn(-c3nonc3N)c2CSC2=NCCS2)cc1` was tested, and the “activity change, negative = inhibition” value was inactive: -0.0934%.
In the case of `CCOC(=O)N1CCN(C(C(=O)O)c2c[nH]c3c(OC)cccc23)CC1` (stereo unspecified), the Potency is reported as inconclusive: 44.7 µM [inhibitor, partial curve, poor fit].
With `Cc1ccc(N(Cc2cc(=O)[nH]c3ccccc23)C(=O)CCl)cc1` the Potency was inconclusive: 50.1 µM [inhibitor, partial curve, poor fit].
With `C[n+]1cc[nH]c1SCC(=O)c1ccc(Cl)cc1` the Potency was inconclusive: 44.7 µM [inhibitor, partial curve, poor fit].
With `Cc1onc(-c2ccccc2)c1C(=O)NC(=S)NNC(=O)c1ccco1` the Potency was inconclusive: 100 µM [inhibitor, single point].
With `CCn1cc2c(n1)-c1c(oc(C(=O)Nc3cccc(C(F)(F)F)c3)c1C)CC2` the “activity change, negative = inhibition” value was inactive: -24.9%.
With `CCn1cnc2c1c(=O)n(CC(=O)Nc1ccc(OC)c(OC)c1)c(=O)n2Cc1ccccc1` the Potency was inconclusive: 89.1 µM [inhibitor, single point].
In the case of `COC(=O)c1nccnc1N`, the Potency is reported as inconclusive: 141 µM [inhibitor, single point].
For `Cc1ccc(-c2cc(C(=O)OCC(=O)NCC(C)C)c3ccccc3n2)o1`, the Potency was inconclusive: 17.8 µM [inhibitor, partial curve, poor fit].
With `CCn1c(SC(C)C(=O)NCC2CCCO2)nc2scc(-c3ccccc3)c2c1=O` (stereo unspecified) the “activity change, negative = inhibition” value was inactive: 4.6%.
`COc1ccccc1Cn1cc(C(=O)c2ccc(C)cc2)c(=O)c2cc3c(cc21)OCCO3` was tested, and the “activity change, negative = inhibition” value was inactive: 2.16%.
For `CC[C@@H](C)[C@@H](CO[C@@H](Cc1ccccc1)C(=O)N[C@@H](CCS(C)(=O)=O)C(=O)OC(C)C)NC[C@@H](N)CS`, the Potency was inconclusive: 50.1 µM [inhibitor, partial curve, poor fit].
